Reference: PubChem BioAssay AID1347076 (National Center for Advancing Translational Sciences (NCATS), 2019)
In all, about 400,000 compounds went through this assay and about 13,000 (3.2%) were called active. Inconclusive means that the source gave no clear call. Such entries were picked first, then a sample of the others. Calls come from the whole dose curve; as a rule, active = well fitted cell-killing curve with a large enough effect; inconclusive = small, poorly fitted or top-dose-only effect, or effect the other way; inactive = flat fitted curve, though single readings scatter. A potency beside an inconclusive call is a rough fit, not a confirmed value.

experiment: qHTS assay for MDR1-selective chemotherapeutics: Primary screen using the drug-selected MDR subline cells KB-V1; details: KB-V1 MDR cells viability, CellTiter-Glo, 72 h; activity change, negative = cytotoxicity: at 46.1 µM (top of the series); note: nearly all actives have a fitted effect of over 60% in size
Procedure, shortened: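 Potencies derive from concentration-effect curves fitted to normalized luminescence (CellTiter-Glo) of KB-V1 cells treated for 72 h at 37 degrees C in phenol-red-free DMEM containing 10% FBS.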
% is set by controls: 0 for no effect and ±100 for the full control effect; potency is the fitted concentration of half-maximal effect.

| Structure (SMILES) | Potency | activity change, negative = cytotoxicity |
| --- | --- | --- |
| O=C(Nc1cccc(-c2nnc(-c3ccco3)o2)c1)C(c1ccccc1)c1ccccc1 | inconclusive: 20.6 µM [cytotoxic, single point] |  |
| Cc1cc(C(=O)NC(Cc2c[nH]c3ccccc23)C(=O)O)c(C)o1 (configuration not stated) |  | inactive: 3.71% |
| CCOc1cc(C2C(C(N)=O)=C(C)Nc3ncnn32)cc(Br)c1O (configuration not stated) | inconclusive: 29.1 µM [rising, single point] |  |
| CSc1ccc(/C=N/N2CCN(Cc3ccccc3Cl)CC2)cc1 | inconclusive: 16.4 µM [cytotoxic, single point] |  |
| CCn1nc(C)c(NC(=O)/C=C/c2ccc(OC)c(COc3ccc(Cl)cc3Br)c2)c1C |  | inconclusive: -23.1% |
| CCOC(=O)c1c(C)[nH]c(C(=O)COC(=O)c2cccnc2Cl)c1C |  | inactive: -15.2% |
| Cc1noc(C)c1NC(=O)N(C)C[C@H]1Oc2ccc(NC(=O)NC3CCCCC3)cc2C(=O)N([C@H](C)CO)C[C@@H]1C |  | inactive: -11.1% |
| Cc1cc(C)c2c(-n3cccc3)c(NC(=O)OCc3ccccc3)sc2n1 | inconclusive: 23.1 µM [cytotoxic, single point] |  |
| NC1=NC(c2ccccc2C(F)(F)F)N(c2ccc(F)c(Cl)c2)C(N)=N1 (configuration not stated) |  | inactive: -3.21% |
| COc1ccccc1-n1nc(C)c(-c2ccccc2)c1N |  | inconclusive: 0% |
| COc1cc(C2Nc3ccccc3C(=O)N2c2ccccc2)c(Br)cc1OCC(=O)O (configuration not stated) |  | inactive: -9.89% |
| Cn1c(SCCc2ccc([N+](=O)[O-])cc2)nccc1=O | inconclusive: 8.2 µM [cytotoxic, single point] |  |
| C[C@@H]1CN([C@H](C)CO)C(=O)CCCn2cc(nn2)CO[C@H]1CN(C)C(=O)C1CC1 |  | inactive: 0.387% |
| CCOC(=O)[C@]12CCC=C1N(CCC1=CCCCC1)C(=O)[C@H](CC(=O)NCc1cccs1)C2 |  | inactive: -34.9% |
| O=C(/C=C/c1ccc(Cl)cc1)N1CCN(Cc2ccccc2)CC1 |  | inactive: -0.714% |
| Cc1ccc(NC(=O)CSc2nc3c(c(=O)[nH]2)CN(Cc2ccccc2)CC3)cc1Cl | inconclusive: 5.8 µM [rising, partial curve] |  |
| COc1ccc([N+](=O)[O-])cc1NC(=O)CSc1nc(C)c(C)c(C)n1 |  | inactive: -5.25% |
| CCCS(=O)c1nc(C)cc(C)c1S(C)(=O)=O (configuration not stated) |  | inactive: -14.4% |
| O=C(O)Cc1ccc(NS(=O)(=O)c2ccc3c(c2)OCCO3)cc1 |  | inconclusive: 37.2% |
| CCCCC(=O)NC(=S)Nc1ccc(S(=O)(=O)N2CCCC2)cc1 | inconclusive: 23.1 µM [cytotoxic, single point] |  |
| Cc1cc([N+](=O)[O-])ccc1N(C)C |  | inactive: 6.36% |
| O=[N+]([O-])c1cc(Cl)cc(/C=N/Nc2nc3ccccc3s2)c1O | inconclusive: 8.2 µM [cytotoxic, partial curve] |  |
| Cc1ccc(Nc2nc(-c3ccc(S(=O)(=O)N4CCOCC4)cc3)cs2)cc1Cl | inconclusive: 25.9 µM [cytotoxic, single point] |  |
| CCN(C(=O)COC(=O)c1cc(-c2cccc3ccccc23)nc2ccccc12)C1CCS(=O)(=O)C1 (configuration not stated) | active: 18.4 µM |  |

In the list so far, twelve contain sulfur:

| Structure (SMILES) | Potency | activity change, negative = cytotoxicity |
| --- | --- | --- |
| CSc1ccc(/C=N/N2CCN(Cc3ccccc3Cl)CC2)cc1 | inconclusive: 16.4 µM [cytotoxic, single point] |  |
| Cc1cc(C)c2c(-n3cccc3)c(NC(=O)OCc3ccccc3)sc2n1 | inconclusive: 23.1 µM [cytotoxic, single point] |  |
| Cn1c(SCCc2ccc([N+](=O)[O-])cc2)nccc1=O | inconclusive: 8.2 µM [cytotoxic, single point] |  |
| CCOC(=O)[C@]12CCC=C1N(CCC1=CCCCC1)C(=O)[C@H](CC(=O)NCc1cccs1)C2 |  | inactive: -34.9% |
| Cc1ccc(NC(=O)CSc2nc3c(c(=O)[nH]2)CN(Cc2ccccc2)CC3)cc1Cl | inconclusive: 5.8 µM [rising, partial curve] |  |
| COc1ccc([N+](=O)[O-])cc1NC(=O)CSc1nc(C)c(C)c(C)n1 |  | inactive: -5.25% |
| CCCS(=O)c1nc(C)cc(C)c1S(C)(=O)=O (configuration not stated) |  | inactive: -14.4% |
| O=C(O)Cc1ccc(NS(=O)(=O)c2ccc3c(c2)OCCO3)cc1 |  | inconclusive: 37.2% |
| CCCCC(=O)NC(=S)Nc1ccc(S(=O)(=O)N2CCCC2)cc1 | inconclusive: 23.1 µM [cytotoxic, single point] |  |
| O=[N+]([O-])c1cc(Cl)cc(/C=N/Nc2nc3ccccc3s2)c1O | inconclusive: 8.2 µM [cytotoxic, partial curve] |  |
| Cc1ccc(Nc2nc(-c3ccc(S(=O)(=O)N4CCOCC4)cc3)cs2)cc1Cl | inconclusive: 25.9 µM [cytotoxic, single point] |  |
| CCN(C(=O)COC(=O)c1cc(-c2cccc3ccccc23)nc2ccccc12)C1CCS(=O)(=O)C1 (configuration not stated) | active: 18.4 µM |  |

Continued.

| Structure (SMILES) | Potency | activity change, negative = cytotoxicity |
| --- | --- | --- |
| CCOC(=O)c1c(NC(=O)COC(=O)CCCOc2ccc(OC)cc2)sc(C(=O)N(C)C)c1C |  | inactive: -24.2% |
| O=C(CSc1nnc(-c2cccnc2)o1)Nc1ccccn1 | inconclusive: 32.6 µM [cytotoxic, partial curve, poor fit] |  |
| CN1CC(=O)N(CC(=O)Nc2ccc(F)cc2)c2ccccc2C1=O | inconclusive: 29.1 µM [rising, partial curve, poor fit] |  |
| Cc1nc2scc(C)n2c(=O)c1S(=O)(=O)Nc1ccc(N2CCN(C(=O)C(C)C)CC2)cc1 | inactive |  |
| CCOC(=O)c1[nH]c2ccc(OC)cc2c1NC(=O)c1cccc(OC)c1 | inconclusive: 23.1 µM [cytotoxic, partial curve, poor fit] |  |
| OC[C@H]1O[C@@H](c2nc3ccc(-c4nc(-c5ccc(Br)cc5)no4)cc3[nH]2)C[C@@H]1O |  | inactive: -4.79% |
| CCOc1ccc(/C=C/C(=O)NCCc2ccc(OC)c(OC)c2)cc1 | active: 16.4 µM |  |
| CN(C)c1ccc(/C=C2\C=Cc3ccccc32)cc1N |  | inactive: 0% |
| CN(Cc1ccc(C(C)(C)C)cc1)C(=O)c1ccc2c(=O)n3c(nc2c1)CCC3 | inconclusive: 2.31 µM [cytotoxic, partial curve, poor fit] |  |
| Cc1ccc(N=Cc2cc(Br)cc(Cl)c2O)cc1 |  | inactive: 17.6% |
| O=C(CSc1ccccc1)NNC(=O)c1ccncc1 | inconclusive: 25.9 µM [rising, single point] |  |
| CCOC(=O)c1c(NC(=O)C2CCCO2)sc(C(=O)OC(C)(C)C)c1C (configuration not stated) | inconclusive: 29.1 µM [cytotoxic, single point] |  |
| CC1(C)Cc2c(c(-c3ccco3)nc3sc4c(NCCCO)ncnc4c23)CO1 | inconclusive: 7.31 µM [cytotoxic, partial curve, poor fit] |  |
| Cc1cccc(N2C(=O)CC(n3ccnc3)C2=O)c1C (configuration not stated) | inconclusive: 29.1 µM [rising, single point] |  |
| Cc1ccccc1-n1nc(C)c2cc(C(=O)N3CCN(S(=O)(=O)c4ccc(F)cc4)CC3)sc21 | inconclusive: 10 µM [cytotoxic, partial curve, poor fit] |  |
| O=C(CCN1C(=O)[C@@H]2Cc3ccccc3CN2C1=O)NCc1ccccc1Cl |  | inconclusive: -30.1% [cytotoxic] |
| COc1ccc(Cl)cc1NC(=O)CN(C)C(=O)CCc1nc2ccccc2c(=O)[nH]1 |  | inactive: -13.1% |
| COc1ccc(NC(=O)CN(C)C(=O)c2cn(-c3ccccc3)nc2-c2ccc(Cl)cc2)cc1 | active: 23.1 µM |  |
| COc1ccc(CN2CCCCCC2)cc1Br | inconclusive: 2.31 µM [rising, full curve, poor fit] |  |
| Cc1ccc(C(=O)NCc2ccc(N3CCN(C)CC3)cc2)cc1C | inconclusive: 14.6 µM [cytotoxic, partial curve, poor fit] |  |
| CCN(C(=S)NC(=O)c1ccccc1Br)C1CCCCC1 |  | inactive: -19.1% |
| O=C(NC1CCCCCCC1)c1cccc(S(=O)(=O)N2CCOCC2)c1 | inconclusive: 7.31 µM [cytotoxic, partial curve] |  |
| Cc1cc(=O)c(C(=O)c2ccccc2)c(C)o1 | inconclusive: 29.1 µM [rising, single point] |  |
| Cc1ccc(OCCSc2nc(-c3cccs3)nc3cc(=O)[nH]n23)cc1Cl |  | inactive: -5.26% |

| Structure (SMILES) | Potency | activity change, negative = cytotoxicity |
| --- | --- | --- |
| Cc1ccc(C(=O)Nc2ccc(C)c(S(=O)(=O)Nc3ccccc3Cl)c2)s1 | inconclusive: 7.31 µM [cytotoxic, partial curve] |  |
| O=C(Cn1nnc(-c2ccccc2)n1)N/N=C/c1cc([N+](=O)[O-])ccc1O | inconclusive: 29.1 µM [cytotoxic, single point] |  |
| CCN(CC)CCOC(=O)C1(c2ccc(OC)c(OC)c2)CCCC1 | active: 20.6 µM |  |
| Cc1cnc(NC(=O)c2cccc(S(=O)(=O)N3CCOCC3)c2)s1 |  | inactive: 26.7% |
| CCOC(=O)c1c(C)[nH]c(C(=O)OCC(=O)NCc2ccc(F)cc2)c1C | inconclusive: 0.0116 µM [rising, full curve, poor fit] |  |
| Cc1ccc(-n2cc(CCCCCCCCC(=O)O)nn2)cc1 |  | inconclusive: -8.13% |
| COc1cc(CNC(=O)C2CC(O)CN2C(=O)Nc2ccccc2)cc(OC)c1OC (configuration not stated) |  | inactive: 26% |
| CCn1cc2nc(SCC(=O)Nc3ccc(OC)cc3OC)n(Cc3ccc(OC)cc3)c(=O)c2n1 | inconclusive: 32.6 µM [cytotoxic, partial curve, poor fit] |  |
| Cc1cc(OC(=O)CNC(=O)OC(C)(C)C)c2c(C)cc(=O)oc2c1 | inconclusive: 20.6 µM [cytotoxic, single point] |  |
| COc1cc(C)c(S(=O)(=O)Nc2cccc(-c3ccc(N4CCCC4)nn3)c2)cc1C |  | inactive: -4.07% |
| Cc1cc(F)ccc1NC(=O)CCS(=O)(=O)c1cccc2nsnc12 | inconclusive: 1.84 µM [rising, full curve, poor fit] |  |
| C/C(=N\NC(=O)c1ccc(O)cc1)c1ccc2c(c1)OCCO2 | inconclusive: 14.6 µM [rising, single point] |  |
| O=c1oc2ccccc2c(Nc2cccc(O)c2)c1[N+](=O)[O-] |  | inactive: 4.99% |
| CN(CC(=O)Nc1ccc(F)cc1)CC(=O)N1CCCCCC1 | inconclusive: 20.6 µM [cytotoxic, single point] |  |
| CCOC(=O)c1cnn(-c2sc(C(=O)OCC)c(C)c2C(=O)OCC)c1N | inconclusive: 0.0411 µM [rising, full curve] |  |
| CC(C)CNC(=S)NNC(=O)c1csc2ccccc12 | active: 14.6 µM |  |
| CC(=O)N1CCCc2ccc(NS(=O)(=O)c3ccc(C)cc3)cc21 | inconclusive: 20.6 µM [cytotoxic, single point] |  |
| COc1ccccc1-c1c(C)nn2c(N3CCOCC3)cc(C)nc12 |  | inactive: 13.7% |
| CCn1c(CSc2ncccn2)nnc1SCC(=O)N1c2ccccc2CC1C (configuration not stated) | active: 11.6 µM |  |
| O=C(Nc1cc(F)ccc1F)c1cnn2c1NC(=C1CC1)C=C2C(F)F | inconclusive: 18.4 µM [cytotoxic, partial curve, poor fit] |  |
| COC(=O)C1=C(N)Oc2cc(C)n(C)c(=O)c2C1c1ccc(Cl)cc1 (configuration not stated) | inconclusive: 5.8 µM [cytotoxic, partial curve, poor fit] |  |
| O=C(Cn1sc2ccccc2c1=O)Nc1ccc(Cl)cc1 | inconclusive: 11.6 µM [cytotoxic, partial curve] |  |
| O=Nc1c2cc(-c3ccccc3)[nH]nc-2c2ccccc12 | inconclusive: 1.16 µM [cytotoxic, full curve, poor fit] |  |
| CCc1cc(=O)oc2cc(C)c3c(-c4ccc(F)cc4)coc3c12 | inconclusive: 29.1 µM [rising, single point] |  |
